Data on one molecule can be found in PMC12048721.

For the assay, the target named is T1, mature NAG-1/GDF15 (UniProt Q99988).
T1 sequence: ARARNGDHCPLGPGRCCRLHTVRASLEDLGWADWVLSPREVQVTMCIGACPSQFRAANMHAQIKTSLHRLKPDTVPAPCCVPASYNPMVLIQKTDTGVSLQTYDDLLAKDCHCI
The experiment in a line: phage display screening; purified mature NAG-1/GDF15 as bait; T7 human colon cDNA library (Novagen); NAG-1/GDF15-bound phages isolated and identified by PCR in E. coli; only the target purified.

No constants are given. Whether binding was seen depends on the method and setting. Some binding calls cover weakened binding; strength is not graded here.

B1: EpCAM (261-314 aa), phage-displayed fragment (domain or fragment, UniProt P16422 261-314)
chain: MQGLKAGVIAVIVVVVIAVVAGIVVLVISRKKRMAKYEKAEIKEMGEMHRELNA
As to B1, the binding result is listed as “binds”.
